Reference: PubChem BioAssay AID493014 (National Center for Advancing Translational Sciences (NCATS), 2011)
The other results are listed elsewhere or left out. The main result of the screen is listed elsewhere. These columns were measured beside it and carry no call. The list favours compounds with an active or inconclusive main result. Words in brackets tell the shape of the fitted curve; partial curves, single points and poor fits give uncertain potencies.

Experiment: qHTS Assay to Find Inhibitors of Chronic Active B-Cell Receptor Signaling
Conditions: ABC-DLBCL IkBa-CBG/CBR reporter, luminescence ratio (green luciferase fused to IkBa over red control in TMD8 lymphoma cells), 4 h
Outline: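 TMD8 ABC-DLBCL cells carrying doxycycline-inducible green luciferase fused to IkappaBalpha plus unfused red luciferase were exposed to compounds (up to 46 uM) for 4 hrs at 37C. Activity came from the overlap-corrected green/red luminescence ratio.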

[1] = measured here: CBR red luminescence, cell number
[2] = measured here: IkBa-CBG green luminescence

Structure (SMILES) | AC50 [1] | AC50 [2]
Cc1nn(-c2ccccc2)c(C)c1C1C(C#N)=C(N)Oc2n[nH]c(C)c21 (stereo unspecified) | 18.4 µM [falling, partial curve] | –
COC1=C/C(=C/c2c(N)n3nc(-c4ccc(C)cc4)sc3nc2=O)C=CC1=O | 14.1 µM [falling, single point] | –
COc1ccc(CCNS(=O)(=O)c2c(C)nc3scc(C)n3c2=O)cc1OC | 35.5 µM [rising, single point] | –
O=C(O)c1c(NC(=O)c2cccc3ccccc23)sc2c1CCC2 | 6.51 µM [falling, partial curve, poor fit] | –
COCCNC(=O)c1cc(-c2ccccc2)n(Cc2cc(C)no2)n1 | 1.3 µM [rising, full curve, poor fit] | –
COC(=O)c1ccc(NC(=O)c2cn(-c3cccc(C)n3)cn2)cc1 | 2.24 µM [falling, partial curve, poor fit] | –
O=C(Cc1ccccc1[N+](=O)[O-])NC1CC2CCC1C2 (stereo unspecified) | 8.91 µM [rising, partial curve, poor fit] | –
CCC(C)c1ccc(NC(=O)c2ccco2)cc1 (stereo unspecified) | 0.158 µM [rising, full curve, poor fit] | 12.6 µM [falling, partial curve, poor fit]
O=S(=O)(Nc1cc(Sc2ncn[nH]2)c(O)c2ccccc12)c1ccccc1 | 5.01 µM [falling, full curve, poor fit] | –
Cc1[nH]nc(SCC(=O)N2CCCC2)c1[N+](=O)[O-] | 10 µM [falling, single point] | –
O=S(=O)(c1ccsc1)N1CC=C(c2ccccc2)CC1 | 6.31 µM [rising, partial curve] | –
CCc1ccc(OCc2cccc(C(=O)N/N=C\c3cnn(C)c3C)c2)cc1 | 15.8 µM [falling, partial curve, poor fit] | –
O=C(Nc1ccccc1F)c1coc(=O)c(Br)c1 | 35.5 µM [rising, single point] | –
COC(=O)Cc1cc(=O)[nH]c(Nc2nc3ccccc3o2)n1 | 20.6 µM [falling, single point] | –
O=C(NCc1cccnc1)C(=O)NC1CCCCC1 | 15.8 µM [falling, single point] | –
CCOC(=O)C1CCN(C(=O)COc2cccc3ccccc23)CC1 | 2.82 µM [falling, partial curve] | –
COc1cccc(C(=O)Nc2cnn(C(C)C)c2)c1 | 22.4 µM [falling, single point] | 3.55 µM [rising, full curve, poor fit]
CS(=O)(=O)c1nc(S(=O)(=O)c2ccc(Cl)cc2)c(N2CCC(O)CC2)s1 | 14.1 µM [falling, single point] | –
Cc1cc(Br)ccc1OCCCCNC(C)(C)C | 22.4 µM [falling, single point] | –
CC(C)(C)c1ccc(CN(Cc2ccccc2)C(c2ccccn2)c2nnnn2C(C)(C)C)cc1 (stereo unspecified) | 0.13 µM [rising, full curve, poor fit] | –
Cc1ccc(Cn2nnnc2CN2CCC(c3nc4ccc(Cl)cc4[nH]3)CC2)cc1 | 29.1 µM [falling, single point] | –
COc1ccc(Oc2nccc(OC)c2C#N)cc1 | 23.1 µM [rising, partial curve, poor fit] | –

Structure (SMILES) | AC50 [1] | AC50 [2]
C=CC[C@@H](CC(=O)N[C@H](CO)Cc1ccccc1)C(=O)N[C@H](COC(=O)[C@@H](CC=C)Cc1ccc(F)cc1)Cc1c[nH]c2ccccc12 | 18.4 µM [falling, single point] | –
C/C(CC(=O)Nc1ccc([N+](=O)[O-])cc1)=N\NC(=O)c1ccccc1O | 2 µM [falling, full curve] | –
COc1ccc(-c2nc(CC(=O)Nc3cccc(S(=O)(=O)NC4=NCCC4)c3)cs2)cc1 | 23.1 µM [falling, single point] | –
Cc1ccc(C)c(C(=O)CCC(=O)OCn2nnc3ccccc3c2=O)c1 | 0.92 µM [rising, full curve, poor fit] | –
COc1cccc(NC(=O)[C@H](C)NC(=O)N2CCn3c2nc2ccccc23)c1 | 10 µM [falling, partial curve] | –
O=C(c1ccc(F)cc1)N1CCC(n2nnc3ccccc32)CC1 | 20 µM [rising, partial curve, poor fit] | –
CN(C)CCc1cc2c(c3c1ccc1ccccc13)OCO2 | 20 µM [falling, single point] | –
O=c1[nH]c(/C(Cl)=C/c2cc(Cl)ccc2O)nc2cc(Cl)ccc12 | 0.461 µM [rising, full curve] | –
CS(=O)(=O)N1CCSC1c1ccc(Br)cc1 (stereo unspecified) | 0.1 µM [falling, full curve, poor fit] | –
COc1ccc(OC)c(NC(=O)COC(=O)c2ccc(OC)c(S(=O)(=O)N3CCOCC3)c2)c1 | 0.82 µM [rising, full curve, poor fit] | –
CC1=NNC(=O)c2ccccc2O1 | 0.794 µM [rising, full curve, poor fit] | –
C(=N\Nc1ncnc2sc3c(c12)CCC3)/c1ccncc1 | – | 15.8 µM [falling, partial curve, poor fit]
CC(C)(C)c1nnc2sc(SCC(=O)c3ccc(Cl)cc3)nn2c1=O | 3.16 µM [falling, partial curve, poor fit] | –
CCCC(=O)Nc1c(-c2ccc(C)cc2)c(=O)c2ccccc2n1C | 12.6 µM [rising, single point] | –
O=C(NCc1nnc(SCc2ccc(F)cc2)n1-c1ccccc1)C12CC3CC(CC(C3)C1)C2 | 29.1 µM [falling, single point] | –
Cc1cccc(Nc2nc(C)nc3c2oc2ccccc23)c1 | 12.6 µM [falling, partial curve, poor fit] | –
COc1ccc(Nc2ccc(C(=O)O)cc2[N+](=O)[O-])cc1 | 0.116 µM [falling, full curve] | –
Cc1nc2nc(SCC(=O)NCCc3ccc(Cl)cc3)nn2c(C)c1Cc1ccccc1Cl | 14.1 µM [falling, single point] | –
COc1cccc(/C=N/Nc2ccc([N+](=O)[O-])cc2)c1O | 7.94 µM [falling, partial curve, poor fit] | –
O=C(/C=C/c1ccc2ccccc2n1)N1CCN(S(=O)(=O)c2ccccc2F)CC1 | 8.91 µM [rising, partial curve, poor fit] | –
Nc1ccc(C(=O)OCC(=O)NC2CC2)cc1[N+](=O)[O-] | 8.91 µM [falling, partial curve, poor fit] | –
O=C(/C(N=Nc1cccc(C(F)(F)F)c1)=C(/O)c1cccs1)C(F)(F)F | 0.282 µM [falling, full curve, poor fit] | –

Structure (SMILES) | AC50 [1] | AC50 [2]
Cc1ccc(-c2nn(CCC(=O)O)cc2/C=C\C(=O)c2ccc(Br)cc2)cc1 | 25.1 µM [falling, single point] | –
CCC(=O)N(CCC(c1ccco1)c1ccccc1OC)Cc1cccs1 (stereo unspecified) | 29.1 µM [falling, single point] | –
CO/N=C/C(NC(=O)c1ccc(C(F)(F)F)cc1)C(=O)OC (stereo unspecified) | 35.5 µM [falling, single point] | –
CCCCC(=O)Nc1nnc(SCC(=O)NCC2CCCO2)s1 (stereo unspecified) | 3.66 µM [falling, partial curve, poor fit] | –
CC1(C)NC(=O)N(CCSc2ccc(Cl)cc2)C1=O | 7.31 µM [falling, partial curve, poor fit] | –
Cc1ccc(NC(=O)c2c(O)c3ccccc3n(C)c2=O)nc1 | 0.501 µM [falling, full curve] | –
Cc1ccc(-n2cc(CN3CCN(Cc4nccn4C)CC3)c(-c3cccc(C)c3)n2)cc1 | 3.55 µM [rising, partial curve, poor fit] | –
COC(=O)/C=C/c1ccc(-n2cncn2)cc1 | 35.5 µM [rising, single point] | –
CCC1(C)CC(C(N)=S)CCO1 (stereo unspecified) | 3.16 µM [falling, single point] | –
COC(=O)Cn1c(C)nc2c(sc3nc(C)cc(C)c32)c1=O | 0.411 µM [rising, full curve, poor fit] | –
O=C(COc1ccc2oc(-c3ccco3)cc(=O)c2c1)N1CCCCC1 | 6.31 µM [falling, partial curve, poor fit] | –
Cc1nc(NC(=O)CSc2nc3ccccc3s2)sc1C(=O)N(C)C | 12.6 µM [falling, partial curve, poor fit] | –
CCCCNC(=O)OC(C)CNC(=O)Oc1cccc(C)c1 (stereo unspecified) | 29.1 µM [rising, single point] | –
CSCCC(NC(=O)COc1ccccc1)C(=O)OCC(=O)c1cc2ccccc2o1 (stereo unspecified) | 1.16 µM [falling, full curve, poor fit] | –
COc1ccccc1C(=O)N/N=C/C(C)=C/c1ccccc1 | 0.316 µM [falling, full curve, poor fit] | –
Cn1nnnc1Sc1ccc(C(=O)O)cc1[N+](=O)[O-] | 31.6 µM [rising, single point] | –
COc1ccc(OC)c(NC(=O)CSC2=Nc3ccccc3C3=NC(CC(=O)NCc4ccc(F)cc4)C(=O)N23)c1 (stereo unspecified) | 35.5 µM [falling, single point] | –
Cc1cc(C)c(C(=O)COC(=O)CCNS(=O)(=O)c2c(Cl)cccc2Cl)cc1C | 23.1 µM [rising, partial curve, poor fit] | –
CC(C)Cc1nnc(NS(=O)(=O)Cc2ccccc2)s1 | 6.51 µM [falling, partial curve] | –
Cc1ccnc(NS(=O)(=O)c2ccc(N=CC3=C(O)CC(C)(C)CC3=O)cc2)n1 | 1.3 µM [rising, full curve, poor fit] | –

Complete entries as entered above.
COc1ccc(-c2nc(CC(=O)Nc3cccc(S(=O)(=O)NC4=NCCC4)c3)cs2)cc1 reads AC50 [1]: 23.1 µM [falling, single point]
O=C(c1ccc(F)cc1)N1CCC(n2nnc3ccccc32)CC1 reads AC50 [1]: 20 µM [rising, partial curve, poor fit]
Cc1ccc(-c2nn(CCC(=O)O)cc2/C=C\C(=O)c2ccc(Br)cc2)cc1 reads AC50 [1]: 25.1 µM [falling, single point]
Cc1ccc(-n2cc(CN3CCN(Cc4nccn4C)CC3)c(-c3cccc(C)c3)n2)cc1 reads AC50 [1]: 3.55 µM [rising, partial curve, poor fit]
